Laboratory results: PubChem BioAssay (EPA / NIEHS)
Where “and” joins values, the source holds several entries; their conditions need not be identical. Equal values may be shown once. Inconclusive results, whose numbers are uncertain, are shown with a selection of clear calls. A potency beside an inconclusive call is a rough fit, not a confirmed value. Calls of active or inactive are those of the source. How the source made its calls: active means hit-call score of the fitted dose curve at least 0.9, where 1 is the maximum; inconclusive means response in the unintended direction; inactive means score below 0.9.

Amino acid sequences for entries named in this document (tags omitted). A change or cut given only in a name is not applied to a line headed by its entry.
UniProt P10276, whole entry, looked up: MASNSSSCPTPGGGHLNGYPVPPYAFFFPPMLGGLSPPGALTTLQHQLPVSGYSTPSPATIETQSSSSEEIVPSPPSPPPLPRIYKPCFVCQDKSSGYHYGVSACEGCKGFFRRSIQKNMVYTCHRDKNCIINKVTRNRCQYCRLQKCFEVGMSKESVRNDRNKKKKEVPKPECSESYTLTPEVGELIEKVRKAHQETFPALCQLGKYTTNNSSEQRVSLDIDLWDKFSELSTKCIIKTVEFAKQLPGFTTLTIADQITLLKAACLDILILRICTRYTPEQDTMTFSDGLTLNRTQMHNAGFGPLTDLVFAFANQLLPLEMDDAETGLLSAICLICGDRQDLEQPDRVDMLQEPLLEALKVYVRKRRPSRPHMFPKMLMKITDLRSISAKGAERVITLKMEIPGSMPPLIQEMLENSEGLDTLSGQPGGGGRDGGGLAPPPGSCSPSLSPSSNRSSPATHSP
UniProt Q92753: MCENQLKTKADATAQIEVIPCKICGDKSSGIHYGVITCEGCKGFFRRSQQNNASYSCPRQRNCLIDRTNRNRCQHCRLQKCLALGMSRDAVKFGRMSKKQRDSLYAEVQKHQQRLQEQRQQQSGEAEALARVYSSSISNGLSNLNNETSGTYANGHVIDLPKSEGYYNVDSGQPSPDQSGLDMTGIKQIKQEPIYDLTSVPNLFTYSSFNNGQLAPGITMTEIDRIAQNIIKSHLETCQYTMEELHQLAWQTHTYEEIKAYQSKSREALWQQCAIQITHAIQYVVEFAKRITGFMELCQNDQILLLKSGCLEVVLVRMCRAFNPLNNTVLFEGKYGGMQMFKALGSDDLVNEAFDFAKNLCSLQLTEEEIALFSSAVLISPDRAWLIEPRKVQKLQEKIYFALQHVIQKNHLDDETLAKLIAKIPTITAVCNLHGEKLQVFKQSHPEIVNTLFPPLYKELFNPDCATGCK
UniProt P51449: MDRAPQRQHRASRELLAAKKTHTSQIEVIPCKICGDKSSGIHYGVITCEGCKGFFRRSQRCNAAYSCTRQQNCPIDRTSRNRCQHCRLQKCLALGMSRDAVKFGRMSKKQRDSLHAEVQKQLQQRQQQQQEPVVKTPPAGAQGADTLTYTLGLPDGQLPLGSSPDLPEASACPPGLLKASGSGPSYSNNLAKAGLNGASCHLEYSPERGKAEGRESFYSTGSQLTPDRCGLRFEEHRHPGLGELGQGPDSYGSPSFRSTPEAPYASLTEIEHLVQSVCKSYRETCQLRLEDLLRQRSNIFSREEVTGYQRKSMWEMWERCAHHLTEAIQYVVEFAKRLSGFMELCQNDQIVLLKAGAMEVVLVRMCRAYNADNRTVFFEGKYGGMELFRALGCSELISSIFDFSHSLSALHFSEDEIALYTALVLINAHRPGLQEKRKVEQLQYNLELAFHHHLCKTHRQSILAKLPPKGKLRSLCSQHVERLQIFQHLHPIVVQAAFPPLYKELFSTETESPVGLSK
UniProt P28702: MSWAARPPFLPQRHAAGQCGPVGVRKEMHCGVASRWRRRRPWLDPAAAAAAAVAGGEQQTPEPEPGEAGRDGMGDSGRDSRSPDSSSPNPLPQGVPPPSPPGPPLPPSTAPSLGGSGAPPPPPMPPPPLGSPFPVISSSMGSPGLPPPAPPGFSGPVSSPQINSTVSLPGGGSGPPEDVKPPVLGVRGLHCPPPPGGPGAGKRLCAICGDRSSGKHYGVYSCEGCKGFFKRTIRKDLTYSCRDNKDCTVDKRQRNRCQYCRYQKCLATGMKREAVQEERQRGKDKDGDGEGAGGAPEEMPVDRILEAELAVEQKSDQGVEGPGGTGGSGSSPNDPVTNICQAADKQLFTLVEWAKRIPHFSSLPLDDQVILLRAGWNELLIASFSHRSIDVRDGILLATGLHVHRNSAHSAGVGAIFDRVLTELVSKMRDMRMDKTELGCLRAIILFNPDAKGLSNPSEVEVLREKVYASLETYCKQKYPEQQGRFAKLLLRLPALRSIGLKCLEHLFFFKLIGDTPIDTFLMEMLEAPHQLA
UniProt P10827: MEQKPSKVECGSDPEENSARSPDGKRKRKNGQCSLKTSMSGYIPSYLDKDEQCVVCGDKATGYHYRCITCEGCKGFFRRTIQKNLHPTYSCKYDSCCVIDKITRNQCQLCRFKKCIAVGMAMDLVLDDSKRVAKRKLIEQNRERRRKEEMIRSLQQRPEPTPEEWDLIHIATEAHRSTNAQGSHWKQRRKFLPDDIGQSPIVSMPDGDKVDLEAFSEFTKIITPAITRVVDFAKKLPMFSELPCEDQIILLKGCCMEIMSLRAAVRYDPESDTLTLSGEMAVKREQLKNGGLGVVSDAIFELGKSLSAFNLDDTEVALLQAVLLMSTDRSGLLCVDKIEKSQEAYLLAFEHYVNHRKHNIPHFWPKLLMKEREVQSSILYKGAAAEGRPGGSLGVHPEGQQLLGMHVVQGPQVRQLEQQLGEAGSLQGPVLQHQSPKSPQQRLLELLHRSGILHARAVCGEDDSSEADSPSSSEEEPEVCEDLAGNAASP
UniProt P19793: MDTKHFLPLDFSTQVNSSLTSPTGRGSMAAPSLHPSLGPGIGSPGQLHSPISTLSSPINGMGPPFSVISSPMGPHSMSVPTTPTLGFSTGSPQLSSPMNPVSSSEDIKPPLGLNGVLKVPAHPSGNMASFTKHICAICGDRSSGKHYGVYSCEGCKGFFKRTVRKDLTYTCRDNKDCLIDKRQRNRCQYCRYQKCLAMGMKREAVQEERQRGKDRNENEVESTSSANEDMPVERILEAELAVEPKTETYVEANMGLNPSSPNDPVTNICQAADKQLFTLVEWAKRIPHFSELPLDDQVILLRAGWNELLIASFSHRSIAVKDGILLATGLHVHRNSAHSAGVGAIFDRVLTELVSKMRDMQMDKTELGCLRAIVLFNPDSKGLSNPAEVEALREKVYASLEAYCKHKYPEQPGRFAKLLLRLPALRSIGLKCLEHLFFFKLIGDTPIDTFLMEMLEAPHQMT
UniProt P11473: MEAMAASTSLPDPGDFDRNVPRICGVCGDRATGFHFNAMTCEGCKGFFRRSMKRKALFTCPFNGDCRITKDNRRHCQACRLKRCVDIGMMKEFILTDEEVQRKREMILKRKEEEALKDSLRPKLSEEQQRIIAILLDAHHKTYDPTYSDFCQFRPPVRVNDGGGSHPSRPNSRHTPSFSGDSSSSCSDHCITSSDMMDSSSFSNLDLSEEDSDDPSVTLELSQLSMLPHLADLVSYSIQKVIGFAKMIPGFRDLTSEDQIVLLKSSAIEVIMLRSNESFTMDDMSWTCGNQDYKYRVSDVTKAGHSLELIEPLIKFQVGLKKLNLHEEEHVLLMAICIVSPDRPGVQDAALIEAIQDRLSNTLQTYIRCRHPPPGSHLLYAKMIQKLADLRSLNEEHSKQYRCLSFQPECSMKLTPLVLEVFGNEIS
UniProt P37231: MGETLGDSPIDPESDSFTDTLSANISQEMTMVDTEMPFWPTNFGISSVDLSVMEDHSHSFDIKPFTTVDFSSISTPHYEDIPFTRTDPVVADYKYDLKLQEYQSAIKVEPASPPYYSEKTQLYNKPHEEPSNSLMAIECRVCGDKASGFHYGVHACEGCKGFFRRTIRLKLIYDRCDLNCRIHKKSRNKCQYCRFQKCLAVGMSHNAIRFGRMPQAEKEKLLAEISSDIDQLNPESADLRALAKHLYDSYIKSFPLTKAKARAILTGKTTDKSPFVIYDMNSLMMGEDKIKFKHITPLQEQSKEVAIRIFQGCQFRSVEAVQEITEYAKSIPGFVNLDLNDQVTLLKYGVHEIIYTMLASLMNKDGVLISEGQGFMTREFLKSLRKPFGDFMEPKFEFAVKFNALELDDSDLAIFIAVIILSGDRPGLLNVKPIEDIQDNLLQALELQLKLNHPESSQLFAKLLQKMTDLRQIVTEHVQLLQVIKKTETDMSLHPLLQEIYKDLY
UniProt O75469: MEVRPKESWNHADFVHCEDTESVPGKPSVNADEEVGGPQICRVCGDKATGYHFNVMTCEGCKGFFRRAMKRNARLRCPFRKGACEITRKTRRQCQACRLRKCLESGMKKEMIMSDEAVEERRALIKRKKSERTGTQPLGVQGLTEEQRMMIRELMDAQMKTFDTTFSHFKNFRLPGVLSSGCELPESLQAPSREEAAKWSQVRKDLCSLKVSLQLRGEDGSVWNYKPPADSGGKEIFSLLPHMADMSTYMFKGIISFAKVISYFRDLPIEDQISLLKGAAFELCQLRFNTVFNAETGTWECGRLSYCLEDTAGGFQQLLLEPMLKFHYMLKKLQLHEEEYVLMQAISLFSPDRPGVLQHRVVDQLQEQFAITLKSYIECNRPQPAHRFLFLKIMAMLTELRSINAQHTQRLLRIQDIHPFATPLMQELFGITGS
UniProt P13631, whole entry, looked up: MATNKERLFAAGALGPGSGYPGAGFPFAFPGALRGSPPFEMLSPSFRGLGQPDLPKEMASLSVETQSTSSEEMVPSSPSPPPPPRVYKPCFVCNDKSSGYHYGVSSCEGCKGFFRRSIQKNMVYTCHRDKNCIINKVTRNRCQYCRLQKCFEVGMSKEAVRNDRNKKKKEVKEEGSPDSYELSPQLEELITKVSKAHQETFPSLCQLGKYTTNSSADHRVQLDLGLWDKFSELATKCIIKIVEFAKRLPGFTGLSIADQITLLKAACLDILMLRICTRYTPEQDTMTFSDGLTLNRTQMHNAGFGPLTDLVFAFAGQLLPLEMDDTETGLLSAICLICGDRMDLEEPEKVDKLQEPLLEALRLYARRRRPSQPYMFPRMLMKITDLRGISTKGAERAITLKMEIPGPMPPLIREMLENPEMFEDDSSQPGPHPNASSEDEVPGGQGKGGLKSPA

How the values were obtained:
[1] = target: Retinoic acid receptor alpha (Homo sapiens) (UniProt P10276); assay: ATG_RARa_TRANS: Attagene TRANS-FACTORIAL HepG2 Assay for human Retinoic Acid Receptor alpha (RARa) (AID 2283005);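 further: potency for increased reporter signal meaning RARa activation over DMSO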
Summary of the method: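 HepG2 cells transiently transfected with multiple reporter units expressing chimeric RARα-GAL4 fusion, with GAL4-UAS-driven reporters. After 24 h compound exposure, reporter mRNA induction quantified by RT-PCR and capillary electrophoresis with fluorescent labeling; gain-of-signal fitted relative to DMSO control.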

[2] = target: human RAR-related Orphan Receptor beta (RORb), RORB (gene 6096) (UniProt Q92753); assay: ATG_RORb_TRANS: Attagene TRANS-FACTORIAL HepG2 Assay for human RAR-related Orphan Receptor beta (RORb) (AID 2283010);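 on AC50: potency for increased reporter mRNA meaning activation of RORb-Gal4 chimera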
Summary of the method: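 HepG2, transient MRTU transfection (GAL4-UAS reporters, exogenous NR-Gal4 chimeras); 24 h compound exposure; total RNA → RT-PCR → 6-FAM primer extension → HpaI digest → CE fluorescence. Positive direction vs DMSO baseline.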

[3] = target: human RAR-related Orphan Receptor gamma (RORg), RORC (gene 6097) (UniProt P51449); assay: ATG_RORg_TRANS: Attagene TRANS-FACTORIAL HepG2 Assay for human RAR-related Orphan Receptor gamma (RORg) (AID 2283011);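 on AC50: potency for induction of reporter transcripts above DMSO so activators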
Summary of the method: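 Transient MRTU transfection of HepG2 (TRANS format, exogenous NR-Gal4 chimera). 24 h dosing. Total RNA → oligo(dT) RT → PCR → 6-FAM labelling → HpaI cut → CE. Gain vs DMSO.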

[4] = target: human Retinoid X Receptor beta (RXRb), RXRB (gene 6257) (UniProt P28702); assay: ATG_RXRb_TRANS: Attagene TRANS-FACTORIAL HepG2 Assay for human Retinoid X Receptor beta (RXRb) (AID 2283013)
Summary of the method: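 Read-out: reporter mRNA induction via RT-PCR plus capillary electrophoresis fluorescence, analysed as signal increase relative to DMSO. Cells were human HepG2, transiently transfected with GAL4-UAS reporter constructs and chimeric receptor-Gal4 fusions, dosed for 24 h.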

[5] = target: human Thyroid Receptor alpha (THRa1), THRA (gene 7067) (UniProt P10827); assay: ATG_THRa1_TRANS: Attagene TRANS-FACTORIAL HepG2 Assay for human Thyroid Receptor alpha (THRa1) (AID 2283014)
Summary of the method: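 Transient HepG2 transfection, NR-Gal4 chimera driving GAL4-UAS reporters; 24 h compound exposure; total RNA, oligo(dT) RT, PCR, fluorescent primer extension, capillary electrophoresis. Upward direction vs DMSO control.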

[6] = target: Retinoic acid receptor RXR-alpha (Homo sapiens) (UniProt P19793); assay: ATG_RXRa_TRANS: Attagene TRANS-FACTORIAL HepG2 Assay for human Retinoid X Receptor alpha (RXRa) (AID 2283012)
Summary of the method: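 Read-out: fluorescent reporter-transcript fragments quantified by capillary electrophoresis after RT-PCR. Transiently transfected HepG2 cells carrying GAL4-UAS reporters and NR-GAL4 chimeras were exposed to chemical for 24 h; activity scored as increase over DMSO.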

[7] = target: human Vitamin D Receptor (VDR), VDR (gene 7421) (UniProt P11473); assay: ATG_VDR_TRANS: Attagene TRANS-FACTORIAL HepG2 Assay for human Vitamin D Receptor (VDR) (AID 2283022)
Summary of the method: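 RT-PCR/capillary electrophoresis read-out of reporter mRNA induction in transiently transfected HepG2; 24 h dosing; chimeric NR-Gal4 (TRANS format); gain-of-signal fit against DMSO baseline.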

[8] = target: Peroxisome proliferator-activated receptor gamma (Homo sapiens) (UniProt P37231); assay: ATG_PPARg_TRANS: Attagene TRANS-FACTORIAL HepG2 Assay for human Peroxisome Proliferator-activated Receptor-gamma (PPARg) (AID 2283007)
Summary of the method: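 HepG2 cells are transiently transfected with GAL4-UAS reporter units driven by chimeric NR-Gal4 fusions and dosed for 24 h. Reporter mRNA is quantified by RT-PCR, 6-FAM labelling, HpaI digestion and capillary electrophoresis. Induction is scored against DMSO.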

[9] = target: Nuclear receptor subfamily 1 group I member 2 (Homo sapiens) (UniProt O75469); assay: ATG_PXR_TRANS: Attagene TRANS-FACTORIAL HepG2 Assay for human Pregnane X Receptor (PXR) (AID 2283008)
Summary of the method: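 Transactivation by exogenous PXR–GAL4 fusion measured as reporter transcript induction after 24 h compound treatment of transfected human HepG2 cells. Read-out via RT-PCR and capillary electrophoresis of labelled fragments, fitted upward relative to DMSO.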

[10] = target: human Retinoic Acid Receptor gamma (RARg), RARG (gene 5916) (UniProt P13631); assay: ATG_RARg_TRANS: Attagene TRANS-FACTORIAL HepG2 Assay for human Retinoic Acid Receptor gamma (RARg) (AID 2283009);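 on AC50: AC50 is for reporter induction above DMSO meaning RARg activation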
Summary of the method: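 Readout: reporter transcript levels via RT-PCR, 6-FAM primer-extension labelling, HpaI digestion and capillary electrophoresis. Cells: HepG2 carrying transfected RARg-GAL4 chimera plus UAS reporter set. Dosing 24 h; DMSO negative control.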

Measured: AC50

O=C(O)Cn1c(=O)n(Cc2ccc(Br)cc2F)c(=O)c2ccc(Cl)cc21
inconclusive: [1] 100 µM | [2] 0.009 µM | [4] 100 µM | [5] 0.207 µM
inactive: [3]

CCCCCCCC(C)=O
inactive: [3] | [4]
inconclusive: [1] 100 µM | [2] 100 µM | [6] 100 µM | [7] 100 µM

CC[C@H](c1ccc(O)cc1)[C@@H](CC)c1ccc(O)cc1
inconclusive: [8] 60.5 µM | [6] 314 nM and 59 µM | [5] 5.19 µM | [7] 7.77 nM and 60.8 µM
active: [4] 3.79 µM [middle of 4 runs]
inactive: [8] | [2]

CCCCCCCC(=O)OC
inconclusive: [8] 100 µM | [3] 100 µM | [6] 100 µM
inactive: [9]

CC(C)CCOCCC(C)C
inactive: [3] | [7]
inconclusive: [8] 0.0823 µM | [9] 100 µM | [10] 100 µM | [2] 100 µM | [4] 100 µM | [5] 100 µM

CC(C)(N)CO
inactive: [9]
inconclusive: [8] 0.524 µM | [2] 94.5 µM | [3] 94.5 µM | [5] 94.5 µM | [7] 171 µM

CC1(C)C(=O)NC(=O)N1CO
inconclusive: [8] 100 µM | [9] 27.8 µM | [2] 100 µM | [3] 100 µM | [6] 100 µM | [5] 0.0518 µM

COc1ccc2nc(N)sc2c1
inconclusive: [1] 134 µM | [5] 48.9 µM | [7] 100 µM

CCOCC(C)O (configuration not stated)
inconclusive: [8] 100 µM | [9] 22.1 µM | [6] 27.3 µM | [4] 6.04 µM | [7] 0.872 µM
inactive: [2] | [3]

O=C(O)c1[nH]n(-c2ccc(S(=O)(=O)O)cc2)c(=O)c1N=Nc1ccc(S(=O)(=O)O)cc1
inactive: [2] | [7]
inconclusive: [8] 94.5 µM | [9] 94.5 µM | [3] 94.5 µM | [6] 94.5 µM | [4] 94.5 µM | [5] 94.5 µM

CC(=O)OCCOC(C)=O
inactive: [2]
inconclusive: [8] 100 µM | [9] 25.2 µM | [4] 176 µM
